These are yes or no findings as the source states them, for the method shown. For some assays here: A result given as binding can be weak or reduced; the word gives no strength. Where a sequence is shown, tags or fusion partners need not be part of it.
How the values were obtained:
[1] = target: T1, APC10/DOC1, yeast two-hybrid fusion (Arabidopsis) (UniProt Q9ZPW2); assay: two-hybrid; pair-wise, cross-mating of S. cerevisiae PJ69-4a and PJ69-4 alpha; diploids on SD-LW, interactions selected on -LWA; 28°C for 3 days (Figure 2)
T1 sequence: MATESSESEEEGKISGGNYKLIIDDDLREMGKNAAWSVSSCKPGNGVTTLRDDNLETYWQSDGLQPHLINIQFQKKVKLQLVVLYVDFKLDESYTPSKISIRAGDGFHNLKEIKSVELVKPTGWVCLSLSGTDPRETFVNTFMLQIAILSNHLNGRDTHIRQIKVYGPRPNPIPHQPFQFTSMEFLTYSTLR

[2] = target: T2, DRB4 (Double-stranded RNA Binding protein 4), full length, yeast two-hybrid fusion (Arabidopsis) (UniProt Q8H1D4); assay: as above
T2 sequence: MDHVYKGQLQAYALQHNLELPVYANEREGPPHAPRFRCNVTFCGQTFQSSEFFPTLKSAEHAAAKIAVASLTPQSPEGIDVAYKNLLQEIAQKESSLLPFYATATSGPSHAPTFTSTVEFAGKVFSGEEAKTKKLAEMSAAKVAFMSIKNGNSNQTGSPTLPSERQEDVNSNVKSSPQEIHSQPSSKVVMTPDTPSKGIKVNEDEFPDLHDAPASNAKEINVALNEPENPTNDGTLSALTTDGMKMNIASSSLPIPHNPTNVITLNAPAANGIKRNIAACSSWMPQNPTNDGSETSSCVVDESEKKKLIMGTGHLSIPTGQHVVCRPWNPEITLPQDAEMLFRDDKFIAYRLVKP

Substance	binding [1]	binding [2]
DRB4 deletion Δ1 (lacks only the first dsRBD), yeast two-hybrid fusion (Arabidopsis) (domain or fragment)	binds	–
DRB4 deletion Δ2 (lacks the two dsRBDs), yeast two-hybrid fusion (Arabidopsis) (domain or fragment)	no binding	–
DRB4 deletion Δ3 (lacks the two dsRBDs), yeast two-hybrid fusion (Arabidopsis) (domain or fragment)	no binding	–
DRB4 deletion Δ7 (second dsRBD alone), yeast two-hybrid fusion (Arabidopsis) (domain or fragment)	no binding	no binding

From paper PMC3335838
